One test addresses BD-OsJAZ4 (rice) (UniProt Q6ES51). The test is described as follows: two-hybrid; baits in pGBKT7 (BD), prey AD-OsRAV15 in pGADT7, yeast AH109; growth on SD/-Leu/-Trp/-His/-Ade, 3 days at 30 °C.
In the next test the target is BD-OsJAZ9 (rice) (UniProt Q8GSI0). The test is described as above.
A further test addresses BD-OsJAZ10 (rice) (UniProt Q10QW3). Described as above.
The next test addresses BD-OsJAZ11 (rice) (UniProt Q8GRS2). Described as above.
The target in another test is BD-OsJAZ3 (rice) (UniProt Q6ZJU3). The description is as above.
For test [1], the target named is OsRAV15-GFP (rice) (UniProt Q6K3B2). The test is described as follows: co-IP; transient co-expression in N. benthamiana leaves; precipitated with FLAG or GFP beads, about 2 h at 4 °C, washed three times with 1 x PBS; immunoblot. In general terms: A western blot detects proteins with antibodies after separation by electrophoresis.
For another test, the target named is OsRAV15-FLAG (rice) (UniProt Q6K3B2). The test is described as follows: co-IP; competitive co-IP: components mixed in equal volumes and infiltrated into N. benthamiana leaves with or without P2-GFP, SP8-GFP or M-GFP (HA-GFP as control); 48 hpi; FLAG beads.
Test [2] concerns the target OsRAV15-GFP (rice) (UniProt Q6K3B2). Put plainly: co-IP; co-IP of OsMYC2 and OsRAV15 with or without OsJAZ4 (Figure S15).
Test [3] has as its target OsMYC2 (endogenous in rice) (rice (endogenous in rice plants)) (UniProt Q336P5). Put plainly: co-IP; OsRAV15-2# transgenic rice plants; precipitated with Protein A/G OsMYC2 antibody beads; blots with anti-OsMYC2 and anti-MYC.
Test [4] has the same target. Put plainly: co-IP; competitive co-IP in rice: hybrid plants OsRAV15-2#/P2-OX, OsRAV15-2#/SP8-OX and OsRAV15-2#/M-OX.
Another test concerns the target OsMYC2-nYFP (rice) (UniProt Q336P5). The test is described as follows: split reporter; BiFC: cYFP and nYFP fusions co-infiltrated into N. benthamiana leaves, confocal microscopy at 48 h.
For a further test, the target named is GUS-nYFP (UniProt P05804). Described as above.

The chains behind the UniProt entries cited, without tags or fusion partners. Where a name states a change or a piece, a line headed by the entry shows the natural chain unless it says otherwise.
UniProt Q6ES51: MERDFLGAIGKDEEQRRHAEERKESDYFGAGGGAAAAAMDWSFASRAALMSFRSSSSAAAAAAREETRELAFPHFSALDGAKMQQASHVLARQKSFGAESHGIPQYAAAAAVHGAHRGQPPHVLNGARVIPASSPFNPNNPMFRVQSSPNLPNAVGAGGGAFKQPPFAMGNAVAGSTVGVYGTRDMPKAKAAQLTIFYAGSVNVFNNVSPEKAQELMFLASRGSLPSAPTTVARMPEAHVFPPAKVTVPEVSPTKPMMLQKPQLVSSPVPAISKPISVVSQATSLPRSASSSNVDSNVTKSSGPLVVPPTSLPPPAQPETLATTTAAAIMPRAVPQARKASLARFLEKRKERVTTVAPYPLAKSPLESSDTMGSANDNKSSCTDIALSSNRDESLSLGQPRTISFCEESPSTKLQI
UniProt Q8GSI0: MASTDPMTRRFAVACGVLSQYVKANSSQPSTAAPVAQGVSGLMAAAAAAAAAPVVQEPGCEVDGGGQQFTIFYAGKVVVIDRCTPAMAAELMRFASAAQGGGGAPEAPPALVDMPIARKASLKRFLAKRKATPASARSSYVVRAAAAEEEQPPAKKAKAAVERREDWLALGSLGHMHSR
UniProt Q10QW3: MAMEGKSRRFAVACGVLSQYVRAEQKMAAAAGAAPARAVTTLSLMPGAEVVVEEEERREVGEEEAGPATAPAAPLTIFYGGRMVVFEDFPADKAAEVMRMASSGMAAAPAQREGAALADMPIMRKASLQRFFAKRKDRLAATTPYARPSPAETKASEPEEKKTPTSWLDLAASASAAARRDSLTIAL
UniProt Q8GRS2: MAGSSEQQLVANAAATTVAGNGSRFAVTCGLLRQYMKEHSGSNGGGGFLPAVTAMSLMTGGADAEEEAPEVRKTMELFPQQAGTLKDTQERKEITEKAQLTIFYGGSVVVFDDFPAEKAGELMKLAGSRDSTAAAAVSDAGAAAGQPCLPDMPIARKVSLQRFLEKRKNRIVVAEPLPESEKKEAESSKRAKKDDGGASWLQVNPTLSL
UniProt Q6ZJU3: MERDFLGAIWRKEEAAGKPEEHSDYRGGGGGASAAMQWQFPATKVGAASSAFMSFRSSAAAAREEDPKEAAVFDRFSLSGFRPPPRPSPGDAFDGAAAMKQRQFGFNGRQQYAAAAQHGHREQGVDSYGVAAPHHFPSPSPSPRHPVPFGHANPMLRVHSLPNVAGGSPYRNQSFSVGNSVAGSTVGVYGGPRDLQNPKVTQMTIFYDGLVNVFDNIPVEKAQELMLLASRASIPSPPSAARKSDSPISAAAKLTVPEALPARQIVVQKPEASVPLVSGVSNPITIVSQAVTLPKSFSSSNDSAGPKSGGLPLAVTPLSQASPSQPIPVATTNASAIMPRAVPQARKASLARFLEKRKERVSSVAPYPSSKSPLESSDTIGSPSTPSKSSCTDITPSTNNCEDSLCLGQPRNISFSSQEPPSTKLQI
UniProt Q6K3B2: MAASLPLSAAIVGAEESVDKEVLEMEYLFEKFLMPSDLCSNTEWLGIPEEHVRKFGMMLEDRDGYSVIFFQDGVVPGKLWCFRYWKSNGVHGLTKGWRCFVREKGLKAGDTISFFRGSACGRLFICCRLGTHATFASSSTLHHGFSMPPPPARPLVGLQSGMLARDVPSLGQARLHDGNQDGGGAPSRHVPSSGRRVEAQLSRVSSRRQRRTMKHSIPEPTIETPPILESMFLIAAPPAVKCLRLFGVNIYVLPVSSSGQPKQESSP
UniProt Q336P5: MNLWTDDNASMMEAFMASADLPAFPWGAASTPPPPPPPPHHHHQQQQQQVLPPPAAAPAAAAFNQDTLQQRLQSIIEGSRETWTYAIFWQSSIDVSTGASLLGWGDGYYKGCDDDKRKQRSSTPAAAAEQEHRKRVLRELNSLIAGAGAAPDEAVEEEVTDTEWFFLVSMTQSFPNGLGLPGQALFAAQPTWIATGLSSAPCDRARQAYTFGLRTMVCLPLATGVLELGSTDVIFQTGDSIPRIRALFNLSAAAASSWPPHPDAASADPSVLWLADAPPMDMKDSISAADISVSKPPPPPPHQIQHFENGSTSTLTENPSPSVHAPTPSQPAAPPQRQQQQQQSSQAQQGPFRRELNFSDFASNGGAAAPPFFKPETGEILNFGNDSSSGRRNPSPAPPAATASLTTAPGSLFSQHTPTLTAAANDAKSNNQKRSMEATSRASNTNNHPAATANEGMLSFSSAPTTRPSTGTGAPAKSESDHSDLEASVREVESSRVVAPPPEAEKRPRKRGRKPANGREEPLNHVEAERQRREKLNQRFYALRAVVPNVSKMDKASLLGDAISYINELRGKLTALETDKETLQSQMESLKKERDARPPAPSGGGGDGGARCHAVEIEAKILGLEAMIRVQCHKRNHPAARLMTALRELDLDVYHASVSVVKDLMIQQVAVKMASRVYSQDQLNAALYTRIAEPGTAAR
UniProt P05804: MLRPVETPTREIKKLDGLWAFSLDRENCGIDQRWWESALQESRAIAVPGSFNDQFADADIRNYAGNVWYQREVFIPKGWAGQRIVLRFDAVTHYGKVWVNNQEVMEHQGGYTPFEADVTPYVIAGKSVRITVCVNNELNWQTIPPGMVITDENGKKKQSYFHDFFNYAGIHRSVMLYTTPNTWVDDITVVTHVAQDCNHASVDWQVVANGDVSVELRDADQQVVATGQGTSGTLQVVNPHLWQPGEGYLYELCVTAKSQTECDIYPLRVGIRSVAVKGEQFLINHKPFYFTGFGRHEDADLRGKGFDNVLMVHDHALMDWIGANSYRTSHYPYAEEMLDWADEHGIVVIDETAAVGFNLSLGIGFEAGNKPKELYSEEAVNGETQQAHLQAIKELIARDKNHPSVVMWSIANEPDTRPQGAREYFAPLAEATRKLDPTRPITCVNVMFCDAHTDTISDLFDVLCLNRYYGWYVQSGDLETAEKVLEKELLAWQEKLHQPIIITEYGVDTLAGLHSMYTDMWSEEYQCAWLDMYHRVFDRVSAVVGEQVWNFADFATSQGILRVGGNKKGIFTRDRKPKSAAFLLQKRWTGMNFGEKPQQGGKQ

The values that follow come from PMC11948057.

Results are given in words; binding and its absence hold for the method and conditions named. For some of these results: Binding calls can cover weak binding; strength is not graded here. For some of these results: Binding seen in cells or lysates may run through a third protein.

Regarding AD-OsRAV15 (from UniProt Q6K3B2), the binding result with BD-OsJAZ4 (rice), with BD-OsJAZ9 (rice), with BD-OsJAZ10 (rice), with BD-OsJAZ11 (rice) and with BD-OsJAZ3 (rice) was “binds” each time.

For the substance GUS-MYC (from UniProt P05804 1-603), the binding entry with OsRAV15-GFP (rice) [1] was “no binding”.

Take OsMYC2-MYC (from UniProt Q336P5 1-699): the binding entry with OsRAV15-GFP (rice) [1], with OsRAV15-FLAG (rice) and with OsRAV15-GFP (rice) [2] was “binds” in each case.

For “OsRAV15-MYC in transgenic rice (OsRAV15-2#) (from UniProt Q6K3B2)”, the binding entry in [3] and in test [4] was “binds” in each case.

On to cYFP-OsRAV15 (from UniProt Q6K3B2), for which the binding result in the test with OsMYC2-nYFP (rice) was “binds”; with GUS-nYFP, “no binding”.
